Laboratory results published in patent US8791067B2, “Method for treating malaria” (Morehouse School of Medicine, priority 2012, dated 2014).
For at least one compound, name, drawing or mass did not settle the structure.

Tested on: Plasmodium berghei ANKA
Experiment: Experimental cerebral malaria (ECM): mice infected with P. berghei ANKA (PBA), treated day 6 to 9
Type: in vivo
Conditions: PBA-infected mice following treatment; FIG. 5D

CO[C@H]1O[C@@H]2O[C@@]3(C)CC[C@H]4[C@H](C)CC[C@@H]([C@H]1C)[C@@]24OO3 [ATA, artemether]
serum CXCL10 levels: downregulation
